Data taken from PubChem BioAssay AID1053133, deposited by Broad Institute (2014).

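Plate-reader measure of the Venus reporter marking one vaccinia stage in infected cells (the cell line is not named here); read time unknown. The test concentration is not given here. Percent change in Venus reporter signal; lower (more negative) values mean stronger inhibition of that viral stage.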

Values are in %. How 0% and 100% were set is not given here. Common to all entries: measured here: Venus reporter, other viral stage. This is a side read-out of the assay, for part of the compounds, not drawn at random.

Result for C[C@H]1CCCCO[C@H](CN(C)C(=O)C2CCCCC2)[C@@H](C)CN([C@@H](C)CO)C(=O)c2cc(NS(=O)(=O)c3ccc(Cl)cc3)ccc2O1 was activity change (Venus) -68.5%.
Result for C[C@@H]1CCCCO[C@H](CN(C)Cc2ccccc2)[C@@H](C)CN([C@@H](C)CO)C(=O)c2cc(NS(=O)(=O)c3ccc(Cl)cc3)ccc2O1 was activity change (Venus) -77.72%.
Result for COc1ccc(S(=O)(=O)N(C)C[C@H]2OCCCC[C@H](C)Oc3ccc(NS(=O)(=O)c4c(C)noc4C)cc3C(=O)N([C@@H](C)CO)C[C@@H]2C)cc1 was activity change (Venus) -38.49%.
Result for COCCOC(=O)N1C(=O)[C@@]2(c3ccccc31)[C@H](c1ccccc1OCCO)N1[C@H](c3ccccc3)[C@H](c3ccccc3)OC(=O)[C@H]1[C@@H]2C(=O)NC[C@H](O)c1ccccc1 was activity change (Venus) -39.52%.
Result for O=C(C[C@H]1CC[C@H]2[C@@H](COC[C@@H](O)CN2Cc2ccc(F)cc2)O1)N1CCc2ccccc2C1 was activity change (Venus) -23.9%.
Result for C[C@@H]1CN([C@H](C)CO)C(=O)c2c(c3ccccc3n2C)-c2ccccc2CO[C@@H]1CN(C)C(=O)[C@@H](Cc1ccccc1)N(C)C was activity change (Venus) -38.71%.
Result for CC(C)NC(=O)Nc1ccc2c(c1)C(=O)N([C@H](C)CO)C[C@@H](C)[C@@H](CN(C)Cc1ccc(-c3ccccc3)cc1)O2 was activity change (Venus) -34.9%.
Result for COc1ccc(NC(=O)N2CCCCN3[C@H](C2)[C@@H](c2ccc(C#CCC(C)C)cc2)[C@@H]3CO)cc1 was activity change (Venus) -59.88%.
Result for C[C@@H]1CCCCO[C@@H](CN(C)CC2CCCCC2)[C@@H](C)CN([C@@H](C)CO)C(=O)c2cc(NC(=O)Nc3ccc4c(c3)OCO4)ccc2O1 was activity change (Venus) -48.68%.
Result for Cc1ccc(S(=O)(=O)Nc2ccc3c(c2)C(=O)N([C@H](C)CO)C[C@H](C)[C@@H](CN(C)Cc2ccc(C(F)(F)F)cc2)OCCCC[C@H](C)O3)cc1 was activity change (Venus) -83.7%.
Result for CCC(=O)N1CC2(CN(Cc3ccccc3Cl)C2)c2c([nH]c3cc(OC)ccc23)[C@H]1CO was activity change (Venus) -41.49%.
Result for COc1ccc(S(=O)(=O)Nc2ccc3c(c2)C(=O)N([C@@H](C)CO)C[C@@H](C)[C@H](CN(C)C(=O)C2CCCCC2)OCCCC[C@H](C)O3)cc1 was activity change (Venus) -36.18%.
Result for C[C@@H]1CN([C@H](C)CO)C(=O)Cc2cc(NC(=O)c3ccncc3)ccc2O[C@@H]1CN(C)Cc1ccc(-c2ccccc2)cc1 was activity change (Venus) -46.94%.
Result for C[C@@H]1CN([C@H](C)CO)C(=O)c2cc(NC(=O)Nc3ccccc3)ccc2O[C@@H]1CN(C)Cc1ccc(-c2ccccc2)cc1 was activity change (Venus) -26.28%.
Result for C[C@@H]1CN([C@H](C)CO)C(=O)c2cc(NS(C)(=O)=O)ccc2O[C@@H](C)CCCCO[C@@H]1CN(C)Cc1ccc(Cl)c(Cl)c1 was activity change (Venus) -52.29%.
Result for CC(C)C#Cc1ccc2c(c1)O[C@H](CN(C)Cc1ccncc1)[C@H](C)CN([C@H](C)CO)S2(=O)=O was activity change (Venus) -29.9%.
Result for O=C(Nc1ccc(Cl)cc1)N1C[C@@H]2[C@H](c3ccccc31)[C@@H](CO)N2CC1CCCCC1 was activity change (Venus) -52.13%.
Result for Cc1cccc(CN(C)C[C@@H]2Oc3ncc(C#Cc4ccccc4)cc3C(=O)N([C@H](C)CO)C[C@@H]2C)c1 was activity change (Venus) -38.23%.
Result for C[C@H](CO)N1C[C@H](C)[C@@H](CN(C)Cc2ccc(Oc3ccccc3)cc2)Oc2ccc(NS(=O)(=O)c3ccccc3)cc2CC1=O was activity change (Venus) -67.12%.

The last 2 entries again:

structure	activity change (Venus) (%)
Cc1cccc(CN(C)C[C@@H]2Oc3ncc(C#Cc4ccccc4)cc3C(=O)N([C@H](C)CO)C[C@@H]2C)c1	-38.23
C[C@H](CO)N1C[C@H](C)[C@@H](CN(C)Cc2ccc(Oc3ccccc3)cc2)Oc2ccc(NS(=O)(=O)c3ccccc3)cc2CC1=O	-67.12